Experimental data from the supplement of paper PMC6078165.
Values are relative to the signal before dosing, not to a vehicle control; the signal also falls without drug.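 Fibroblast labels denote human fibroblasts, mainly primary ones from uterus (C12385, HUF), lung (H6013), bone (Hs27A), adrenal (HADF) and skin (WS1), plus mammary HMF and breast cancer-associated Hs343T. Cancer cells are basal-like or mesenchymal-like triple-negative breast cancer lines. A hit is a response shift exceeding 3x replicate standard deviation. The tissue of the other fibroblasts is not given here.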

System: MDAMB468
Assay: relative JC-1 red fluorescence (viability) vs pre-drug, coculture with fibroblast (fraction); higher = more viable cancer cells
Experimental: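 JC-1 labelled TNBC cells cocultured 1:1 (1,500 cells each) with CellTrace Violet stained primary or stromal fibroblasts in 384-well plates in FluoroBrite medium, treated with one of 42 anticancer drugs at 0.1, 1, 10 or 100 uM. JC-1 red fluorescence (mitochondrial integrity in cancer cells only) was read by plate reader every 8 h for 72 h. Values are normalised to each well's pre-drug value. The stock of one drug was tenfold lower, so its dose labels may be too high.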

CCc1c2c(nc3ccc(OC(=O)N4CCC(N5CCCCC5)CC4)cc13)-c1cc3c(c(=O)n1C2)COC(=O)[C@]3(O)CC [Irinotecan]
relative JC-1 red fluorescence
Details	8 h	16 h	24 h	32 h	40 h	48 h	56 h	64 h	72 h
0.1 µM, coculture fibroblast: C12385	0.884	0.837	0.837	0.789	0.753	0.756	0.726	0.712	0.717
0.1 µM, coculture fibroblast: H6013	0.856	0.843	0.799	0.782	0.732	0.729	0.697	0.68	0.64
0.1 µM, coculture fibroblast: H6019	0.8251	0.809	0.794	0.744	0.707	0.701	0.644	0.612	0.59
0.1 µM, coculture fibroblast: H6076	0.899	0.884	0.907	0.95	0.872	0.887	0.876	0.869	0.914
0.1 µM, coculture fibroblast: H6231	0.825	0.911	0.804	0.793	0.739	0.722	0.675	0.647	0.63
0.1 µM, coculture fibroblast: HADF	0.8911	0.8521	0.8044	0.78445	0.7347	0.7247	0.68525	0.668	0.634
0.1 µM, coculture fibroblast: HCFa	0.8681	0.8376	0.7841	0.756	0.69	0.679	0.631	0.598	0.562
0.1 µM, coculture fibroblast: HCPF	0.871	0.895	0.822	0.8398	0.766	0.742	0.704	0.6957	0.6982
0.1 µM, coculture fibroblast: HHSteC	0.9034	0.8737	0.8382	0.8084	0.7707	0.7659	0.693	0.664	0.611
0.1 µM, coculture fibroblast: HMF	0.825	0.892	0.843	0.842	0.763	0.753	0.71	0.699	0.696
0.1 µM, coculture fibroblast: HPFa	0.9173	0.8616	0.835	0.771	0.737	0.726	0.657	0.619	0.5367
0.1 µM, coculture fibroblast: HUF	0.9024	0.81803	0.766	0.7	0.659	0.64	0.596	0.587	0.569
0.1 µM, coculture fibroblast: Hs5	0.937	0.921	0.9504	0.9748	0.923	0.903	0.8921	0.8681	0.922
0.1 µM, coculture fibroblast: Hs27A	0.8758	0.8218	0.7715	0.767	0.7101	0.707	0.673	0.653	0.613
0.1 µM, coculture fibroblast: Hs343T	0.8535	0.844	0.86	0.8853	0.812	0.813	0.78	0.787	0.794
0.1 µM, coculture fibroblast: WS1	0.848	0.791	0.763	0.713	0.667	0.642	0.618	0.601	0.596
1 µM, coculture fibroblast: C12385	0.8569	0.844	0.823	0.78	0.759	0.77	0.739	0.727	0.724
1 µM, coculture fibroblast: H6013	0.8724	0.866	0.824	0.801	0.79	0.799	0.773	0.769	0.714
1 µM, coculture fibroblast: H6019	0.843	0.838	0.82	0.786	0.769	0.768	0.732	0.709	0.693
1 µM, coculture fibroblast: H6076	0.891	0.863	0.8183	0.8167	0.753	0.763	0.7471	0.735	0.7783
1 µM, coculture fibroblast: H6231	0.827	0.84736	0.7921	0.7829	0.71	0.689	0.648	0.624	0.618
1 µM, coculture fibroblast: HADF	0.885	0.888	0.8199	0.81133	0.766	0.754	0.721	0.705	0.666
1 µM, coculture fibroblast: HCFa	0.8857	0.8778	0.8252	0.787	0.735	0.727	0.672	0.636	0.5823
1 µM, coculture fibroblast: HCPF	0.828	0.901	0.841	0.8342	0.773	0.7191	0.665	0.644	0.63
1 µM, coculture fibroblast: HHSteC	0.925	0.89	0.837	0.793	0.753	0.741	0.676	0.653	0.61
1 µM, coculture fibroblast: HMF	0.8545	0.925	0.8707	0.842	0.764	0.752	0.6968	0.677	0.662
1 µM, coculture fibroblast: HPFa	0.904	0.8543	0.812	0.7501	0.71991	0.705	0.6389	0.607	0.5276
1 µM, coculture fibroblast: HUF	0.8773	0.8249	0.791	0.732	0.687	0.668	0.623	0.606	0.587
1 µM, coculture fibroblast: Hs5	0.97	0.953	0.94	0.911	0.849	0.819	0.799	0.762	0.771
1 µM, coculture fibroblast: Hs27A	0.828	0.858	0.773	0.762	0.712	0.702	0.666	0.639	0.602
1 µM, coculture fibroblast: Hs343T	0.841	0.85	0.792	0.76	0.687	0.668	0.631	0.618	0.621
1 µM, coculture fibroblast: WS1	0.8454	0.803	0.7642	0.7063	0.6663	0.644	0.622	0.6	0.596
